The test system of this assay is Colo38, Colo38R, M21, M21R and TPF-10-741 cells. As to the kind of experiment: MTT dose titration of PDGFRα-I. The settings on record: Homo sapiens; dose titration experiment, MTT assay, the 5 cell lines; read-out: IC50 doses. The assay is classed as cell-based. As for the experimental part: MTT assay was carried out as reported elsewhere^2. […] All experiments were performed three independent times in triplicates.
A dose titration experiment established the dose of PDGFRα-I to be combined with vemurafenib in the 5 cell lines. […] The dose of 1.5 μM and 3 μM for sunitinib and the dose of 10 μM and 20 μM for imatinib were chosen to be tested in combination with vemurafenib for their effect on cell growth (FIG. 9) and survival (FIG. 10). […] Furthermore, PDGFRα-I synergized (p<0.05) with vemurafenib to overcome BRAF-I resistance, increasing the growth inhibition of Colo38R, M21R and TPF-10-741 cells.
(Tetrazolium dyes change colour on reduction, which living cells bring about.)

pIC50: −log10 of the molar value.

As to `Cc1ccc(NC(=O)c2ccc(CN3CCN(C)CC3)cc2)cc1Nc1nccc(-c2cccnc2)n1` [imatinib], the pIC50 (in general, the IC50 on a negative log10 scale, so that one unit is a factor of ten) was 4.82.

These data come from patent US10220091B2, “Combination treatments with sonic hedgehog inhibitors” (The General Hospital Corporation, priority 2013, dated 2019).
